{"source": "PubChem BioAssay AID504784 (Drosophila RNAi Screening Center, 2011)", "assay": "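Fly genes whose silencing alters how much lipid cells keep in droplets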 (primary screen)", "cell system": "Drosophila Kc167 embryonic cells", "reagent": "long dsRNA against Drosophila genes, about 250 ng dsRNA per well", "duration": "4 days", "conditions": "cells fed 400 µM oleic acid bound to BSA", "detection": "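Cells imaged and segmented; ratio of lipid droplet area to nuclear area, log-transformed, then normalised as a B-score over the screen; higher means more stored lipid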", "direction": "droplet/nuclear area B-score: higher = more stored lipid (overstorage)", "note": "The deposit covers about 17,000 reagents; below is an unselected part of those with a known target gene and a result. 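Each column is one replicate's B-score; the combined score over replicates was not deposited, so single values may mislead.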 Names joined by + are all predicted targets of the reagent. Not all columns of the deposit are shown."}
{"gene knocked down":"Nct","amplicon":"DRSC16172","droplet/nuclear area B-score, replicate 1":-1.04}
{"gene knocked down":"Pask","amplicon":"DRSC04337","droplet/nuclear area B-score, replicate 1":0.834}
{"gene knocked down":"Mocs2A + Mocs2B","amplicon":"DRSC13697","droplet/nuclear area B-score, replicate 1":-0.256}
{"gene knocked down":"Mocs2A + Mocs2B","amplicon":"DRSC14219","droplet/nuclear area B-score, replicate 1":1.46}
{"gene knocked down":"eIF3k","amplicon":"DRSC04056","droplet/nuclear area B-score, replicate 1":1.01}
{"gene knocked down":"CG8617","amplicon":"DRSC07223","droplet/nuclear area B-score, replicate 1":-0.682}
{"gene knocked down":"CG8539","amplicon":"DRSC10988","droplet/nuclear area B-score, replicate 1":-0.16}
{"gene knocked down":"CG8539","amplicon":"DRSC21798","droplet/nuclear area B-score, replicate 1":1.85}
{"gene knocked down":"l(3)04053","amplicon":"DRSC11640","droplet/nuclear area B-score, replicate 1":-1.16}
{"gene knocked down":"Takl1","amplicon":"DRSC13443","droplet/nuclear area B-score, replicate 1":-0.885}
{"gene knocked down":"CG42458","amplicon":"DRSC10335","droplet/nuclear area B-score, replicate 1":0.0263}
{"gene knocked down":"CG42458","amplicon":"DRSC23129","droplet/nuclear area B-score, replicate 1":-1.03}
{"gene knocked down":"CG42458","amplicon":"DRSC23261","droplet/nuclear area B-score, replicate 1":-1.13}
{"gene knocked down":"mute","amplicon":"DRSC06562","droplet/nuclear area B-score, replicate 1":1.29}
{"gene knocked down":"mute","amplicon":"DRSC22931","droplet/nuclear area B-score, replicate 1":-0.03}
{"gene knocked down":"CG3529","amplicon":"DRSC10369","droplet/nuclear area B-score, replicate 1":0.51}

Quoted from the entries so far for reference:
{"gene knocked down":"CG8539","amplicon":"DRSC21798","droplet/nuclear area B-score, replicate 1":1.85}
{"gene knocked down":"l(3)04053","amplicon":"DRSC11640","droplet/nuclear area B-score, replicate 1":-1.16}

More entries follow:
{"gene knocked down":"MED1","amplicon":"DRSC11808","droplet/nuclear area B-score, replicate 1":0.0223}
{"gene knocked down":"PEK","amplicon":"DRSC12361","droplet/nuclear area B-score, replicate 1":1.23}
{"gene knocked down":"tio","amplicon":"DRSC03739","droplet/nuclear area B-score, replicate 1":-0.169}
{"gene knocked down":"Prx2","amplicon":"DRSC20256","droplet/nuclear area B-score, replicate 1":0.0467}
{"gene knocked down":"S6kII","amplicon":"DRSC20645","droplet/nuclear area B-score, replicate 1":0.958}
{"gene knocked down":"CG31140","amplicon":"DRSC14603","droplet/nuclear area B-score, replicate 1":-1.73}
{"gene knocked down":"CG31140","amplicon":"DRSC15904","droplet/nuclear area B-score, replicate 1":0.664}
{"gene knocked down":"Dronc","amplicon":"DRSC11231","droplet/nuclear area B-score, replicate 1":0.504}
{"gene knocked down":"Bub1","amplicon":"DRSC02357","droplet/nuclear area B-score, replicate 1":4.67}
{"gene knocked down":"Bub1","amplicon":"DRSC23158","droplet/nuclear area B-score, replicate 1":-1.68}
{"gene knocked down":"CG13919","amplicon":"DRSC08388","droplet/nuclear area B-score, replicate 1":1.25}
